Results from patent publication US20100226922A1, “SPECIFIC PROTEASE INHIBITORS AND THEIR USE IN CANCER THERAPY” (priority 2006, published 2010).
No constants are given. Whether binding was seen depends on the method and setting. For part of these data: In cells and extracts the contact can be indirect. Some binding calls cover weakened binding; strength is not graded here. For part of these data: Tags and fused reporters may be left off the sequences shown. One block for each molecule: values may come before it.

By UniProt entry, the sequences of proteins in these tests, tags left out. Residues count along the entry.
UniProt P35222, residues 2-781: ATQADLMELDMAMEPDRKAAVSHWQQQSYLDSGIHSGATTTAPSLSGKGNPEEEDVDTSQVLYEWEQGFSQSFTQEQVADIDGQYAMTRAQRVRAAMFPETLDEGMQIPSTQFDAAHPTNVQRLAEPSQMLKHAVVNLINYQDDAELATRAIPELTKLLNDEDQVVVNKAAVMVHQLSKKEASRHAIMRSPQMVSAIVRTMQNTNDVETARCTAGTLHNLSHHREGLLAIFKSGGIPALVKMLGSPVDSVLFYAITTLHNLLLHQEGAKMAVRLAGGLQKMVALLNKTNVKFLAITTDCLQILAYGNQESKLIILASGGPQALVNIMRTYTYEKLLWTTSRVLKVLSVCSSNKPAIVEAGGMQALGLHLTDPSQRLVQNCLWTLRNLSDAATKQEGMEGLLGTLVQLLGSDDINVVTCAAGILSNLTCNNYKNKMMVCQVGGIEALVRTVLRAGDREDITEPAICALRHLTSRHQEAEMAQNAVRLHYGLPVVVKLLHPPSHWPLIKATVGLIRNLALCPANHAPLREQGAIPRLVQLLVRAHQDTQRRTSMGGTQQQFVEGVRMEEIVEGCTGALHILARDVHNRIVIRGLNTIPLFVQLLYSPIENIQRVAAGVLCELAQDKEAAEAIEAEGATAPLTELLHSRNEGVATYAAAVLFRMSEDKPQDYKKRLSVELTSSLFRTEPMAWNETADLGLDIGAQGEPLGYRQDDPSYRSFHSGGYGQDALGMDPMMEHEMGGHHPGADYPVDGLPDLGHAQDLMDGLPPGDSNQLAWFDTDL
UniProt Q9UJU2: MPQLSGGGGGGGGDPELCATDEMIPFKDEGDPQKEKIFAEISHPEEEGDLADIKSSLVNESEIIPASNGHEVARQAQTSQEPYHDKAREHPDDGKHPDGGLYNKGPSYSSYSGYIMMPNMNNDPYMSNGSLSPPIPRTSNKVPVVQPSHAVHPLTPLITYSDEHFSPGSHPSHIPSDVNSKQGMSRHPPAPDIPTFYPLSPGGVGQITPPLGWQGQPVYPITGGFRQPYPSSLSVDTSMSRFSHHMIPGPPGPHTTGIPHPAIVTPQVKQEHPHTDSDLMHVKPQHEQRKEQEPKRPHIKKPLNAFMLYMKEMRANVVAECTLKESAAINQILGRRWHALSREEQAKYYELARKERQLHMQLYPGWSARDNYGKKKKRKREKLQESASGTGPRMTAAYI

Key:
[1] = molecular target: T1, EpIC-YFP (intracellular domain of EpCAM starting with serine 289 fused to YFP) (UniProt P16422); test: nuclear extracts of HEK293 cells expressing EpIC-YFP; method not detailed
T1 sequence (looked up): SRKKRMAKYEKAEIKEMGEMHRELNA

[2] = molecular target: T2, EpIC, intracellular domain of EpCAM (human) (UniProt P16422); test: native two-dimensional gel electrophoresis of FaDu nuclear complexes (co-migration)
T2 sequence (looked up): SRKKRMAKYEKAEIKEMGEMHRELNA

[3] = molecular target: T3, EpCAM (epithelial cell adhesion molecule), full-length (human) (UniProt P16422); test: co-immunoprecipitation from HEK293-EpCAM cells
T3 sequence (looked up): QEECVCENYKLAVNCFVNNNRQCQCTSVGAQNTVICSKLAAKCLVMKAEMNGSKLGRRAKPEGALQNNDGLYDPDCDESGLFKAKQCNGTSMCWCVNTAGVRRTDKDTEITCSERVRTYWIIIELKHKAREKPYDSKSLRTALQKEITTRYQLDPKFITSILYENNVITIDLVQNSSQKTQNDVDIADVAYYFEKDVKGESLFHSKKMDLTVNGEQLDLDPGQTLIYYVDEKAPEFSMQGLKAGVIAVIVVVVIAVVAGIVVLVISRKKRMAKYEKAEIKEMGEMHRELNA

[4] = molecular target: T2, EpIC, intracellular domain of EpCAM (human); test: yeast two-hybrid, EpIC bait in pGBKT7, FHL2 cDNA clone in pACT2
[5] = molecular target: T3, EpCAM (epithelial cell adhesion molecule), full-length (human); test: reciprocal co-immunoprecipitation with EpEX- and FHL2-specific antibodies in HEK293 transfectants
[6] = molecular target: β-catenin (human) (UniProt P35222); test: co-immunoprecipitation in HEK293-EpCAM-HA-FHL2 cells
[7] = molecular target: T3, EpCAM (epithelial cell adhesion molecule), full-length (human); test: GST pull-down from HeLa cell extracts expressing EpCAM

- binding [1]: binds
- binding [2]: binds
Molecule: β-catenin (from UniProt P35222 2-781)

- binding [1]: binds
Molecule: lymphoid enhancer factor Lef (from UniProt Q9UJU2 1-399)

- binding [3]: binds
- binding [4]: binds
- binding [2]: binds
- binding [5]: binds
B1: four and a half LIM domain protein FHL2 (other, human, UniProt Q14192 1-279, looked up)
chain: MTERFDCHHCNESLFGKKYILREESPYCVVCFETLFANTCEECGKPIGCDCKDLSYKDRHWHEACFHCSQCRNSLVDKPFAAKEDQLLCTDCYSNEYSSKCQECKKTIMPGTRKMEYKGSSWHETCFICHRCQQPIGTKSFIPKDNQNFCVPCYEKQHAMQCVQCKKPITTGGVTYREQPWHKECFVCTACRKQLSGQRFTARDDFAYCLNCFCDLYAKKCAGCTNPISGLGGTKYISFEERQWHNDCFNCKKCSLSLVGRGFLTERDDILCPDCGKDI

- binding [6]: binds
B2: HA-tagged FHL2 (protein, human, UniProt Q14192 1-279, looked up, not shown: small tags and cut ends)
chain: MTERFDCHHCNESLFGKKYILREESPYCVVCFETLFANTCEECGKPIGCDCKDLSYKDRHWHEACFHCSQCRNSLVDKPFAAKEDQLLCTDCYSNEYSSKCQECKKTIMPGTRKMEYKGSSWHETCFICHRCQQPIGTKSFIPKDNQNFCVPCYEKQHAMQCVQCKKPITTGGVTYREQPWHKECFVCTACRKQLSGQRFTARDDFAYCLNCFCDLYAKKCAGCTNPISGLGGTKYISFEERQWHNDCFNCKKCSLSLVGRGFLTERDDILCPDCGKDI

- binding [7]: binds
B3: wild-type FHL2 as recombinant GST-fusion (protein, UniProt Q14192 1-279, looked up, not shown: a dimerising Fc or GST)
chain: MTERFDCHHCNESLFGKKYILREESPYCVVCFETLFANTCEECGKPIGCDCKDLSYKDRHWHEACFHCSQCRNSLVDKPFAAKEDQLLCTDCYSNEYSSKCQECKKTIMPGTRKMEYKGSSWHETCFICHRCQQPIGTKSFIPKDNQNFCVPCYEKQHAMQCVQCKKPITTGGVTYREQPWHKECFVCTACRKQLSGQRFTARDDFAYCLNCFCDLYAKKCAGCTNPISGLGGTKYISFEERQWHNDCFNCKKCSLSLVGRGFLTERDDILCPDCGKDI
